Consider 36 targets from the supplement of paper PMC7666118.

By UniProt entry, the sequences of proteins in these tests, tags left out. Where a name states a change or a piece, a line headed by the entry shows the natural chain unless it says otherwise.
UniProt Q9H845: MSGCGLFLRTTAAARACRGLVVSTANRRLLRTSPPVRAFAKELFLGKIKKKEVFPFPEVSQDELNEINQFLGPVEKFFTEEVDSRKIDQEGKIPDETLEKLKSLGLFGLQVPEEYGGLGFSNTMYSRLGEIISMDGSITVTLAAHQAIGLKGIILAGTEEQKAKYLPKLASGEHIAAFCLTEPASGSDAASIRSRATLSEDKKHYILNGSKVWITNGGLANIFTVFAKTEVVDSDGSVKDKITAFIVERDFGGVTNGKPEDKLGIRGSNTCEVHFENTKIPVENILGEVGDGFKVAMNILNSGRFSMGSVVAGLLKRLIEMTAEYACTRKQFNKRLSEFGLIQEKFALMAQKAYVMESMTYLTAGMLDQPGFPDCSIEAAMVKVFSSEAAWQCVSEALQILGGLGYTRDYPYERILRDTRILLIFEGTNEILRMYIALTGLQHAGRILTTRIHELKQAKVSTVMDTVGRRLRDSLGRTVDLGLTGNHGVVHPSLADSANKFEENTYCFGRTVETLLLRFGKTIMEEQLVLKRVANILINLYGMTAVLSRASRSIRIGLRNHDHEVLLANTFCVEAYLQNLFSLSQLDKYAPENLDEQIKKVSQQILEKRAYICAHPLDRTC
UniProt Q8N2K0: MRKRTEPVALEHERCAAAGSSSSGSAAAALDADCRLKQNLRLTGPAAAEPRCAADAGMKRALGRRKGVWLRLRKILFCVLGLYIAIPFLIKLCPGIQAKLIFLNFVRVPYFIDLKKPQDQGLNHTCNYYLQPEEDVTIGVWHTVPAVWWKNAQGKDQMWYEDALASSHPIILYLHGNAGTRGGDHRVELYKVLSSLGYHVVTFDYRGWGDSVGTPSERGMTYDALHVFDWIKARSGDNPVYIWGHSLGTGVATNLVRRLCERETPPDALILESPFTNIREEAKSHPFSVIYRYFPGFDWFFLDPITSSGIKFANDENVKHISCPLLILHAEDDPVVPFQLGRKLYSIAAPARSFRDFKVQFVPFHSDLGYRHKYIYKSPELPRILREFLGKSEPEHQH
UniProt P00519, whole entry: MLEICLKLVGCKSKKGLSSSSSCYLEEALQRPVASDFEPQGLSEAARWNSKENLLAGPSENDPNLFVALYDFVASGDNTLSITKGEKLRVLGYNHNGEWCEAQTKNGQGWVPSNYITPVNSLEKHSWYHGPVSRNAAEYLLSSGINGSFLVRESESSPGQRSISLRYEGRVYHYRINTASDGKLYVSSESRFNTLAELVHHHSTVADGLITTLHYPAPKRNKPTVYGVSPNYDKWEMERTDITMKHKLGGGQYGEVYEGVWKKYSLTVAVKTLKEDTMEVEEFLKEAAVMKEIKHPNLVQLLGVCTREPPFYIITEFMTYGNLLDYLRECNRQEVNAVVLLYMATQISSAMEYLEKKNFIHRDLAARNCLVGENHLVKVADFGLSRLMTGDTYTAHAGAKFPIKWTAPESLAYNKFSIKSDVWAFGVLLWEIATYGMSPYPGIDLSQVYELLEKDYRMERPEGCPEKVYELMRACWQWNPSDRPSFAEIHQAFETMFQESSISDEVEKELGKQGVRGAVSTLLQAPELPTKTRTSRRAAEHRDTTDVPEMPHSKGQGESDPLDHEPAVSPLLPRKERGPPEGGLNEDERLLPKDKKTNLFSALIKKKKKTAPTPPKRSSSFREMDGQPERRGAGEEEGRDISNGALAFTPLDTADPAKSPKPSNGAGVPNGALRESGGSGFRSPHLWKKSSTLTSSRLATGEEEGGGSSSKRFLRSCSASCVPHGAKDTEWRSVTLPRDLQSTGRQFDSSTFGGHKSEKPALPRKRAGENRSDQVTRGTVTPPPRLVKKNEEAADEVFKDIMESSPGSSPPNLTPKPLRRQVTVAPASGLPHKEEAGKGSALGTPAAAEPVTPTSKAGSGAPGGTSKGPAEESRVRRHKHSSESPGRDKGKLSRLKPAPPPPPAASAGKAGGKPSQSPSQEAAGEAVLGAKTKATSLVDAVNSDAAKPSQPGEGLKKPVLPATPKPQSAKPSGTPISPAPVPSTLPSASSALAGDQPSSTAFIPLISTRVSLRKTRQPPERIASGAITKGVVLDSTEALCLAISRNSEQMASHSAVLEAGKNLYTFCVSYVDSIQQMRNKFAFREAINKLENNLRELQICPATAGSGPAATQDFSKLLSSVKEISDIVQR
UniProt P49748: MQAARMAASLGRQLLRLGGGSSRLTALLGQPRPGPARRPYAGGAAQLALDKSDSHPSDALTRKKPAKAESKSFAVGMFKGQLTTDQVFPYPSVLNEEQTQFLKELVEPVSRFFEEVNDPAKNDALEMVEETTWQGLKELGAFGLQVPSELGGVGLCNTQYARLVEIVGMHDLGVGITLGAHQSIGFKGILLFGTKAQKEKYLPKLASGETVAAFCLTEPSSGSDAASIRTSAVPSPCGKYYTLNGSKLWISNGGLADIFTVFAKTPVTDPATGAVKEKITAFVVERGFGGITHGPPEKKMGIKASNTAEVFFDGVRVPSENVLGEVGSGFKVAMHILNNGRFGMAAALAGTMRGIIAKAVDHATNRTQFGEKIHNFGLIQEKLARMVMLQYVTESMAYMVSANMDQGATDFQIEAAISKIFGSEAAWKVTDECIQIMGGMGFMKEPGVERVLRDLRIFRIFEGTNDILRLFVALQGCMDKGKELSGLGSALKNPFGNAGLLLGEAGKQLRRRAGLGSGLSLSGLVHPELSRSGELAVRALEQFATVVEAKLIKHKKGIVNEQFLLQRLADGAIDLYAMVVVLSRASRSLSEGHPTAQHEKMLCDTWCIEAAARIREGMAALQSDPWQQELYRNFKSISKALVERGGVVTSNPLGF
UniProt Q9UKU7: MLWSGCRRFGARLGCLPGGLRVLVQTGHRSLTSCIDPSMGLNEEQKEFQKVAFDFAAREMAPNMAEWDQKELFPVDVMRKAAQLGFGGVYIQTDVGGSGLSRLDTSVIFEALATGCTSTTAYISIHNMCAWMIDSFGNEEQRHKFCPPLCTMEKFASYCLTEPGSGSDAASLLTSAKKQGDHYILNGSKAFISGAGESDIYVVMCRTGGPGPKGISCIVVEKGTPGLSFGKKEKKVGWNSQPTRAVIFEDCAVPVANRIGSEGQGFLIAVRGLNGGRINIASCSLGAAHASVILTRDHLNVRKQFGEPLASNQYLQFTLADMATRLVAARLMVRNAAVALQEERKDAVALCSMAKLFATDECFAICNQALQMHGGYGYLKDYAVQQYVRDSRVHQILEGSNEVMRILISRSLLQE
UniProt P11310: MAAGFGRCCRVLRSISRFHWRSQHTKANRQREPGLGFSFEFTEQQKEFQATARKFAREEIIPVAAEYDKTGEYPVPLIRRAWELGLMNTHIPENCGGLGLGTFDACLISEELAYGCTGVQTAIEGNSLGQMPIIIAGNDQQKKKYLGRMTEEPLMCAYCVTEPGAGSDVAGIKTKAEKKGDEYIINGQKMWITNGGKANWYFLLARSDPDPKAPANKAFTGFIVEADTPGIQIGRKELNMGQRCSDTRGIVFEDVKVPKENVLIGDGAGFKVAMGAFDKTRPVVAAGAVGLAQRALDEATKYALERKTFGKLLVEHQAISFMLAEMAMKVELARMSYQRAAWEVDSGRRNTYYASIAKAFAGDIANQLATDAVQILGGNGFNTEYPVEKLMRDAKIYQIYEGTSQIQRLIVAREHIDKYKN
UniProt Q8WU90: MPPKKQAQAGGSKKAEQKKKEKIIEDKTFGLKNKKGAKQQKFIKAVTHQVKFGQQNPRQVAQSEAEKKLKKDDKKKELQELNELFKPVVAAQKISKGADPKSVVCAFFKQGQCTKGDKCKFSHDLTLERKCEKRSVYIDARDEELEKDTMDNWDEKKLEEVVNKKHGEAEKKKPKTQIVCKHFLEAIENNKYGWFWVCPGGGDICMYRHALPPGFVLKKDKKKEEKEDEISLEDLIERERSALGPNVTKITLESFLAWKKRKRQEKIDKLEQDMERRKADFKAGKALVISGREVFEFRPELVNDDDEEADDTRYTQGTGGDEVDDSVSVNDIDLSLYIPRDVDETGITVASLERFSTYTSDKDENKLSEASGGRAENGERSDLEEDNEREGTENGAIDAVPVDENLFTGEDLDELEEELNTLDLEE
UniProt O43829: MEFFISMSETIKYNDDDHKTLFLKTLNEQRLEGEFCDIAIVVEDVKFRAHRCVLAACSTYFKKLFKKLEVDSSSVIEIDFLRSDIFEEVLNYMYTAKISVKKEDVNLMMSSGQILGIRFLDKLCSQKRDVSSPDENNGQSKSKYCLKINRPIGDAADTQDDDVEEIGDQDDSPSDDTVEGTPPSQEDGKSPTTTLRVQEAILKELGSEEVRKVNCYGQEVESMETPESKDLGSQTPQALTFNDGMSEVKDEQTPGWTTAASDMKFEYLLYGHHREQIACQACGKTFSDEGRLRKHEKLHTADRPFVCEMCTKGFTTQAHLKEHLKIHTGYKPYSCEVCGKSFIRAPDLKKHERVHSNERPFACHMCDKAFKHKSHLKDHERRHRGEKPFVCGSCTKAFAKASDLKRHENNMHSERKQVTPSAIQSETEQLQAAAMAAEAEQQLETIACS
UniProt O95365: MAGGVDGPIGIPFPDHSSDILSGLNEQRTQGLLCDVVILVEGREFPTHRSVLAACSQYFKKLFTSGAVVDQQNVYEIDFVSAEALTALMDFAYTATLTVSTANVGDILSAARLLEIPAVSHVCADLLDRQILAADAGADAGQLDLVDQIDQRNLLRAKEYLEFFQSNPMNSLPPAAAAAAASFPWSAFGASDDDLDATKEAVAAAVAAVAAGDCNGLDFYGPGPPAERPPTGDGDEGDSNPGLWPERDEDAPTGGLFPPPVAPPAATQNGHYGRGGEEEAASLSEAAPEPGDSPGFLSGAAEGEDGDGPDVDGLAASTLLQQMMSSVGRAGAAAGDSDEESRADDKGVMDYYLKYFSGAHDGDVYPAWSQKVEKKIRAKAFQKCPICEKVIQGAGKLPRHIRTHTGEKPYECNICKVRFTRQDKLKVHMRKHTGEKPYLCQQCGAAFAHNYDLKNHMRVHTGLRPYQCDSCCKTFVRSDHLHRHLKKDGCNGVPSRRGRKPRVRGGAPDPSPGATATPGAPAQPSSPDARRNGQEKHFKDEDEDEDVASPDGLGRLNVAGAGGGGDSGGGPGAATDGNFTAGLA
UniProt P17026: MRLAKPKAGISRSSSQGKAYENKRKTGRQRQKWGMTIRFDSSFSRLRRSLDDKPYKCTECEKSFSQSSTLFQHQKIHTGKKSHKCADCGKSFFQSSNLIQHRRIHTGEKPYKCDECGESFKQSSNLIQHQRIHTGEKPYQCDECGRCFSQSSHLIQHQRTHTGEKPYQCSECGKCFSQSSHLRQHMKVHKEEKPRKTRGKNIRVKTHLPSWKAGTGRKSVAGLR
UniProt P37275: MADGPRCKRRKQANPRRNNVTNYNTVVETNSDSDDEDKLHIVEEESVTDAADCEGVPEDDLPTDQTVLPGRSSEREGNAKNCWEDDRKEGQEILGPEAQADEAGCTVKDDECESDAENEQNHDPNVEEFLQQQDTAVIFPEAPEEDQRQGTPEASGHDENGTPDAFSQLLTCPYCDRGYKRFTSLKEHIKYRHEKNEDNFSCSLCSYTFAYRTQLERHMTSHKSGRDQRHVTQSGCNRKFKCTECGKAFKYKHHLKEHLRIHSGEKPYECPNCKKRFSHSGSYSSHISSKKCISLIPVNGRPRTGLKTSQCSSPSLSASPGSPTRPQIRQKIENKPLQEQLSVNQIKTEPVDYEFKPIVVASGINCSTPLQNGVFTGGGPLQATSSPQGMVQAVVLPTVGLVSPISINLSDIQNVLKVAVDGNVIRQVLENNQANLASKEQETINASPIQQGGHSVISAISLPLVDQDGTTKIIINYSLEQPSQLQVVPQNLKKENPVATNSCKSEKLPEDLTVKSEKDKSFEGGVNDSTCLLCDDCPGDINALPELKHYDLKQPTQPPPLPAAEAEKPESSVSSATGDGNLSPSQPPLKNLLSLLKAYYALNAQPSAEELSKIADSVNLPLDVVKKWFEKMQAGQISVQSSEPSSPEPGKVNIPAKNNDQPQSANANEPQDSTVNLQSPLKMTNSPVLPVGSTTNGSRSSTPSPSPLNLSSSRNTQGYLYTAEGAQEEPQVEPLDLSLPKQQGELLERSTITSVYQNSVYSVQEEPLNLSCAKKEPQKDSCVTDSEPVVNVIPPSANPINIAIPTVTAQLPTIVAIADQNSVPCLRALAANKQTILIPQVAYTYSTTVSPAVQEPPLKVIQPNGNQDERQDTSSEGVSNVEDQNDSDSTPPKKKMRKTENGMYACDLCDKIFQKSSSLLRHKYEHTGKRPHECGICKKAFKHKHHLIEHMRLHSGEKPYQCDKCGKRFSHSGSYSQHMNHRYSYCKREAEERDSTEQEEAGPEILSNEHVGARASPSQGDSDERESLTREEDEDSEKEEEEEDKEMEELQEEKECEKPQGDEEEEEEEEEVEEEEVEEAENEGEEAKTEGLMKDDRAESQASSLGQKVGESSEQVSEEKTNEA

The list shows a part of the results.

Compound in the first assay: COc1ccc(Cn2ccc3ccc(C(=O)NO)cc32)cc1
The assay can be described thus: dose-dependent thermal stabilisation call (2D-TPP, DLPTP, 10% FDR) (binary (1 = stabilised)); higher = stabilised by the compound. To be noted: system: HL-60 intact cells; concentration range 0.04-10 µM.
For the target ACAD9 (UniProt Q9H845), the “dose-dependent thermal stabilisation call” value was inactive: 0. Still for that read-out and setting: with ABCC5 (UniProt O15440) the figure was inactive: 0.

As to ABHD12 (UniProt Q8N2K0), the “dose-dependent thermal stabilisation call” value was inactive: 0. The same measure, in the same setting: the result for AARS2 (UniProt Q5JTZ9) reads inactive: 0; that for ACAD10 (UniProt Q6JQN1), inactive: 0.

Turning to 21 KDA PROTEIN., the “dose-dependent thermal stabilisation call” value is inactive: 0. Same read-out and setting: with ABCD4 (UniProt O14678) the figure was inactive: 0; with ABL1 (UniProt P00519), inactive: 0; with ABCF1 (UniProt Q8NE71), inactive: 0. Same read-out and setting: the result for ACADVL (UniProt P49748) reads inactive: 0; that for ABCE1 (UniProt P61221), inactive: 0; that for AASDH (UniProt Q4L235), inactive: 0. For AATF (UniProt Q9NY61), the “dose-dependent thermal stabilisation call” value was inactive: 0. Still for that read-out and setting: the result for ACAD8 (UniProt Q9UKU7) reads inactive: 0; that for AAMP (UniProt Q13685), active: 1; that for ACADM (UniProt P11310), inactive: 0. For the target ABHD14B (UniProt Q96IU4), the “dose-dependent thermal stabilisation call” value is inactive: 0.

Compound in another assay: COc1ccc(Cn2ccc3cc(C)c(C(=O)NO)cc32)cc1
Described as above. The conditions noted are these: system: HL-60 intact cells; concentration range 0.04-10 µM. As to the method:
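2D thermal proteome profiling in intact HL-60 cells treated with BRD-3811 (0, 0.04, 0.29, 2, 10 uM) for 90 min at 37 C, then heated 3 min at one of 12 temperatures (42-63.9 C). Soluble protein was quantified by TMT10 MS. The value is the DLPTP call of the paper: dose-dependent thermal stabilisation over all temperatures at 10% FDR (F-test of a dose-response against a flat model); one experiment, one call per tested protein.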
For ZNF512 (UniProt Q96ME7), the “dose-dependent thermal stabilisation call” value was inactive: 0. Take WDR92 (UniProt Q96MX6): the “dose-dependent thermal stabilisation call” value is inactive: 0. Regarding WDR24 (UniProt Q96S15), the “dose-dependent thermal stabilisation call” value was inactive: 0. Same read-out and setting: the result for ZNF330 (UniProt Q9Y3S2) reads inactive: 0; that for WDR36 (UniProt Q8NI36), inactive: 0; that for ZC3H15 (UniProt Q8WU90), inactive: 0. Still for that read-out and setting: with ZFP161 (UniProt O43829) the figure was inactive: 0.

For the target ZNF787 (UniProt Q6DD87), the “dose-dependent thermal stabilisation call” value was inactive: 0. On the same count and under the same terms, the result for XRCC1 (UniProt P18887) reads inactive: 0. On to ZNF407 (UniProt Q9C0G0), for which the “dose-dependent thermal stabilisation call” value is inactive: 0. In the case of ZNRF2 (UniProt Q8NHG8), the “dose-dependent thermal stabilisation call” value was inactive: 0. On the same count and under the same terms, the result for WDR37 (UniProt Q9Y2I8) reads inactive: 0; that for YTHDF1 (UniProt Q9BYJ9), inactive: 0. On the same count and under the same terms, the result for YIF1B (UniProt Q5BJH7) reads inactive: 0. Regarding ZNF217 (UniProt O75362), the “dose-dependent thermal stabilisation call” value is inactive: 0.

Consider ZBTB7A (UniProt O95365), for which the “dose-dependent thermal stabilisation call” value was inactive: 0. For ZNF22 (UniProt P17026), the “dose-dependent thermal stabilisation call” value was inactive: 0. Same read-out and setting: with ZEB1 (UniProt P37275) the figure was inactive: 0; with ZNF318 (UniProt Q5VUA4), inactive: 0.
